Results are given in words; binding and its absence hold for the method and conditions named.
What was measured:
Test in all cases: AtheNA
SSA = target: SSA
RNP (ribonucleoprotein) = target: RNP (ribonucleoprotein)
Sm (Smith antigen) = target: Sm (Smith antigen)

B1: CH557 (antibody, V domains shown)
VH: QVRLAQYGGGVKRLGATMTLSCVASGYTFNDYYIHWVRQAPGQGFELLGYIDPANGRPDYAGALRERLSFYRDKSMETLYMDLRSLRYDDTAMYYCVRNVGTAGSLLHYDHWGSGSPVIVSS
VL: EIVLTQSPATLSASPGERVTLTCRASRSVRNNVAWYQHKGGQSPRLLIYDASTRAAGVPARFSGSASGTEFTLAISNLESEDFTVYFCLQYNNWWTFGQGTRVDIK
With B1 the binding (SSA) was “no binding (tested: 6.25 ug/ml to 50 ug/ml)”, the binding (RNP (ribonucleoprotein)) was “no binding (tested: 6.25 ug/ml to 50 ug/ml)” and the binding (Sm (Smith antigen)) was “no binding (tested: 6.25 ug/ml to 50 ug/ml)”.

B2: DH542 (antibody, V domains shown)
VH: QVQLVQSGAQMKNPGASVKVSCAPSGYTFTDFYIHWLRQAPGQGLQWMGWMNPQTGRTNTARNFQGRVTMTRDTSIGTAYMELRSLTSDDTAIYYCTTGGWISLYYDSSYYPNFDHWGQGTLLTVSS
VL: TSLLTQPASVSGSPGQSITISCTGTKYDVGSHDLVSWYQQYPGKVPKYMIYEVNKRPSGVSNRFSGSKSGNTASLTISGLRAEDEADYYCCSFGGSATVVCGGGTKVTVL
B2 was tested, and the binding (SSA) was “no binding (tested: Readings <100 are considered negative)”, the binding (RNP (ribonucleoprotein)) was “no binding (tested: Readings <100 are considered negative)” and the binding (Sm (Smith antigen)) was “no binding (tested: Readings <100 are considered negative)”.

From US10344077
